Measured values from article PMC7367369, “A small library of chalcones induce liver cancer cell death through Akt phosphorylation inhibition” (Scientific Reports, 2020).

Tests used:
Format in all cases: cell-based
Huh7 = test: NCI-60 sulforhodamine B (SRB) cytotoxicity assay, Huh7; details: Homo sapiens, Huh-7, 72 h, read-out: IC50 Huh7
Experimental: (§1) The bioactivities of the synthesized chalcones were assessed on human liver cancer cell lines and on DPSCs with NCI-SRB assay in vitro. DPSCs used to asses the bioactivity of chalcones on untransformed control cells with the potential of hepatic lineage. […] We also included 5-Fluorouracil which is used in clinics for gastrointestinal cancers and Sorafenib. All results were normalized to DMSO negative control measurements. The experiment was performed in triplicate.
(§2) Well differentiated human primary liver cancer cell lines Huh7, HepG2 and Hep3B, and poorly differentiated Mahlavu, FOCUS and SNU475 HCC cells were cultured in Dulbecco’s Modified Eagle’s Standard (DMEM) medium supplemented with 10% Fetal Bovine Serum (FBS), 100 units/mL penicillin and 100 µg/mL streptomycin (Gibco, Invitrogen, Carlsbad, CA, USA). 0.1 mM nonessential amino acids (NEAA) which are specific to HCC cell lines also added to culture media. Cells were cultured in a 5% CO2 incubator at 37^∘C
(§3) Primary liver cancer cells Huh7, HepG2, Hep3B, Mahlavu, FOCUS, Snu475 along with hepatic progenitor Dental pulp stem cells were seeded into 96-well plates (1,000–3,000 HCC cell/well and 10,000 cells DPSC/well ) for 24 h. The cells were then treated with increasing concentrations of the chalcones ( 2.5-40μM ). DMSO (AppliChem Biochemica, Darmstadt, Germany) was used as negative control. […]

HepG2 = test: NCI-60 sulforhodamine B (SRB) cytotoxicity assay, HepG2; details: Homo sapiens, 72 h, 2.5–40 μM, triplicate
Experimental: as §1, §2, §3

Hep3B = test: NCI-60 sulforhodamine B (SRB) cytotoxicity assay, Hep3B; details: Homo sapiens, 72 h, 2.5–40 μM, triplicate
Experimental: as §1, §2, §3

Mahlavu = test: NCI-60 sulforhodamine B (SRB) cytotoxicity assay, Mahlavu; details: Homo sapiens, 72 h, 2.5–40 μM, triplicate
Experimental: as §1, §2, §3

FOCUS = test: NCI-60 sulforhodamine B (SRB) cytotoxicity assay, FOCUS; details: Homo sapiens, 72 h, 2.5–40 μM, triplicate
Experimental: as §1, §2, §3

SNU475 = test: NCI-60 sulforhodamine B (SRB) cytotoxicity assay, SNU475; details: Homo sapiens, SNU-475, 72 h, 2.5–40 μM, triplicate
Experimental: as §1, §2, §3

[1] = system: dental pulp stem cells (DPSC); test: NCI-60 sulforhodamine B (SRB) cytotoxicity assay, dental pulp stem cells; details: Homo sapiens, 72 h, 2.5–40 μM, triplicate, untransformed control cells

Q: What does the source list for `Cc1ccc(/C=C/C(=O)c2ccccc2)cc1` [compound 2]?
A: IC50 (Huh7): 4.1 µM; IC50 (HepG2): 5.8 µM; IC50 (Hep3B): 5.6 µM; IC50 (Mahlavu): 5.1 µM; IC50 (FOCUS): 11.4 µM; IC50 (SNU475): 9.8 µM; IC50 [1]: 28.7 µM
